The values that follow come from PubChem BioAssay AID2685 (National Center for Advancing Translational Sciences (NCATS), 2010).

This experiment is described as follows: qHTS Assay for Lipid Storage Modulators in Drosophila S3 Cells.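 As to cell number change: cells counted by Cell Tracker Red CMTPX staining in the red channel.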 Particulars: BODIPY lipid droplet fluorescence, 18-24 h; for cell number change: measured here: cell count max response, cells fed with added oleic acid. The method in brief: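 Drosophila S3 cells loaded with oleic acid (400 uM, as added) and compounds at several concentrations; lipid droplets imaged by 488-nm laser-scanning cytometry, 500–530 nm intensity and object ratio to cell channel. Percent activity normalized to 20 uM Triacsin C.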

[1] abbreviates: measured here: cell number channel AC50, cells fed with added oleic acid.
[2] abbreviates: measured here: lipid fluorescence (Fed channel) AC50, cells fed with added oleic acid.

Some of the results follow. Further columns of the screen follow, without active or inactive calls. Compounds called inactive in the main read-out are mostly missing here. Words in brackets tell the shape of the fitted curve; partial curves, single points and poor fits give uncertain potencies.

The term AC50 denotes the concentration giving half of the maximal activity seen. A lower AC50 goes with greater potency.

On to `COc1ccc(OC)c(C(=O)c2coc3ccc(OCC(=O)O)cc23)c1`, for which the cell number change is -34.6%. Besides, the AC50 under setting [1] is 3.26 µM [falling, full curve]. The AC50 under setting [2] is 3.66 µM [falling, full curve].
For `O=C(NCc1ccco1)c1csc2c1CCCC2`, the cell number change was -20%. For the same compound, under setting [2], the AC50 is 29.1 µM [falling, single point].
`CN(CC(=O)Nc1ccccc1Cl)C(=O)c1ccc(N2CCCCCC2)c([N+](=O)[O-])c1`: the cell number change stood at 13.5%. For the same compound, the AC50 under setting [2] was 0.0731 µM [rising, full curve, poor fit].
As for `CCCn1c(SCC(=O)Nc2sc(C)c(C)c2C(=O)OCC)nc2c1c(=O)n(C)c(=O)n2C`, the cell number change worked out at 15.3%. Moreover, the AC50 under setting [2] was 0.164 µM [rising, full curve, poor fit].
Take `O=C(c1ccco1)N1CCn2cccc2C1c1ccccc1` (centres undefined): the cell number change is -7.73%. The AC50 under setting [2] was 6.51 µM [rising, partial curve, poor fit].
On to `O=C1C=C(c2ccc(OC(F)(F)F)cc2)C[C@@H](c2ccc(Cl)cc2)C1`, for which the cell number change amounted to 1.96%. Moreover, the AC50 under setting [1] was 1.46 µM [falling, partial curve].
On to `O=C(CCNC(=O)c1ccccc1Cl)Nc1ccncc1`, for which the cell number change stood at 4.41%.
In the case of `CN1CCC(=NOc2ccc([N+](=O)[O-])cc2)CC1`, the cell number change was 5.58%. The AC50 under setting [2] is 6.51 µM [falling, single point].
Consider `CN1CCN(C(=O)/C=C/c2cccc(Cl)c2)CC1`, for which the cell number change was -22.8%. For the same compound, the AC50 under setting [2] was 29.1 µM [falling, single point].
In the case of `O=C(c1ccco1)N1CCN(C(c2ccccc2Cl)c2nnnn2CC2CCCO2)CC1` (centres undefined), the cell number change came out at 0.337%. Moreover, the half-maximal activity concentration (AC50) under setting [2] was 6.51 µM [rising, single point].
Consider `COC1=C(Nc2ccccc2)C(=O)c2ccccc2C1=O`, for which the cell number change is -65.7%. Further, the concentration at half-maximal activity (AC50) under setting [1] is 29.1 µM [falling, single point]. The AC50 under setting [2] was 14.6 µM [falling, partial curve].
As for `COc1ccc(Oc2cc(C)c3cccc(C)c3n2)cc1`, the cell number change came out at 3.15%. Further, under setting [2], the AC50 is 29.1 µM [rising, single point].
In the case of `CC1(C)C(c2ccccc2)=[N+]([O-])CN1O`, the cell number change worked out at 0.845%.
Regarding `COC(=O)CCN(C(=O)c1cc(OC)c(OC)c(OC)c1)c1ccccn1`, the cell number change is -2.01%. Besides, under setting [1], the AC50 is 0.0326 µM [falling, full curve, poor fit]. For the same compound, the AC50 under setting [2] is 25.9 µM [falling, partial curve, poor fit].
Consider `Cc1ccc(NC(=O)NCCN2CCN(c3ccccc3)CC2)cc1Cl`, for which the cell number change was 70.8%. The AC50 under setting [1] was 16.4 µM [rising, single point].
In the case of `Cc1ccc(CNC(=O)CO/N=C/c2ccc(C(C)(C)C)cc2)cc1`, the cell number change was -45.5%. Besides, the AC50 under setting [1] was 18.4 µM [falling, single point]. Moreover, under setting [2], the AC50 is 23.1 µM [falling, single point].
